Source: patent US11140896B2, “Two components disinfecting composition containing peracetic acid and chelating agent” (ECOLAB USA INC., priority 2014, dated 2021)
Some results were stated once for a whole list of compounds, not compound by compound.

Experiment: Determination of the shelf-life of the aqueous disinfectant solution (peracetic acid concentration by iodometric titration)
Type: physicochemical

O=C([O-])CC[C@@H](C(=O)[O-])N(CC(=O)[O-])CC(=O)[O-].[Na+].[Na+].[Na+].[Na+] [GLDA, N,N-bis(carboxymethyl)-L-glutamic acid tetrasodium salt]
shelf life before the level of peracetic acid in the solution falls below 1000 ppm (chelating agent at 0.1 wt.-% in component (B)): up to 14 days
peracetic acid concentration in solution kept at a level (for 15 days of storage, chelating agent 0.1% w/w in component (B)): above 1000 ppm
